From patent publication EP0390602A1, “Neurotrophic peptides” (SUMITOMO PHARMACEUTICALS COMPANY, LIMITED, priority 1989, dated 1990)
At least one peptide structure holds a part that was inferred or is arguable (an end, a ring closure or a residue). Where a SMILES comes first, the peptide text is derived from it.

Tested on: culture of rat medial septum nucleous
Assay: Enhancing effect on acetylcholine synthesis in culture of rat medial septum nucleus (method of Ojika et al.)
Assay type: cell-based
Details: for Ach synthesis activity: 300 pg/ml, 6 days culture, average value in triplet assay; for acetylcholine synthesis activity as compared with control culture: concentration of 300 pg/ml
Experimental: The neurotrophic peptide and its derivative of the present invention can regulate differentiation and maturation of neuronal cells. That is, the neurotrophic peptide and its derivative accelerate the acetylcholine synthesis in the tissue of medial septum nucleous which is rich in cholinergic neuron. The biological activity can be determined by the method of Ojika, K., et al. [Ojika, K., et al., Japanese Journal of Psycopharmacology, 7, 447-451, (1987)].
The peptides were assayed for a biological activity in accordance with the method of Ojika et al. [Japanese Journal of Psycopharmacology, 7, 447-451 (1987)]. Namely, medial septum nucleous removed from rat embryonal brain (16 day embryo) is cut to small pieces, then the pieces were cultured in the Bottenstein's modified N₂ medium containing 1% FCS of saturation concentration, in Falcon's 35 mm plastic culture dish with 7% CO₂ mixed air, at 36°C. The neurotrophic peptide or its derivative was added to the cultures at initial day. In a control group, no peptide is added. The neurotrophic peptide may be added to the culture at 3 days after the initial day. After 6 days culture, an acetylcholine synthesis activity of cultured tissue was assayed to determine the biological activity of the peptide. The acetylcholine synthesis activity was assayed as follows.
A cultured tissue was pre-incubated in high potasium Tyrode solution buffered with tris-HCl (pH 7.4) containing 98 mM of Nacl and 55 mM of Kcl , then incubated in a buffered solution containing 100 nM [³H] choline chloride (15 Ci/mmol) at 37°C for 30 minutes. After washing out of free [³H] choline, the tissue was dissolved in 1 N formic acid/acetone (15 : 85) solution. Free [³H] choline was converted to phosphocholine by choline kinase (0.1 unit/ml) and [³H] acetylcholine was extracted with tetraphenyl boron (5 mg/ml acetonitrile) to determine the acetylcholine synthesis activity. The activity of cultured tissue for synthesis of acetylcholine was defined as an amount of synthesized acetylcholine per piece of cultured tissue.

SMILES | Ach synthesis activity (Table 1, Control 4.2 ± 0.7) [fmol/specimen] | acetylcholine synthesis activity as compared with control culture [%] | Ach synthesis activity (Table 2, Control 6.8 ± 2.4) [fmol/specimen]
CC[C@H](C)[C@H](NC(=O)[C@H](CC(=O)O)NC(=O)[C@H](C)NC(=O)[C@H](C)NC(C)=O)C(=O)N[C@@H](CO)C(=O)N[C@@H](CCC(N)=O)C(=O)N[C@@H](Cc1c[nH]c2ccccc12)C(=O)N[C@@H](C)C(=O)NCC(=O)N1CCC[C@H]1C(=O)N[C@@H](CC(C)C)C(=O)O ["HCNP", Acetyl-Ala-Ala-Asp-Ile-Ser-Gln-Trp-Ala-Gly-Pro-Leu] (Ac-AADISQWAGPL-OH) | 8.5 ± 0.6 | 202 | 
CC[C@H](C)[C@H](NC(=O)[C@H](CC(=O)O)NC(=O)[C@H](C)NC(=O)[C@H](C)NC(C)=O)C(=O)N[C@@H](CO)C(=O)N[C@@H](CCC(N)=O)C(=O)N[C@@H](Cc1c[nH]c2ccccc12)C(=O)N[C@@H](C)C(=O)NCC(=O)N1CCC[C@H]1C(=O)N[C@@H](CC(C)C)C(=O)O [Ac-HCNP, Acetyl-Ala-Ala-Asp-Ile-Ser-Gln-Trp-Ala-Gly-Pro-Leu] (Ac-AADISQWAGPL-OH) |  | 159 | 10.8 ± 1.9
